27 compounds from PMC7037732, “Synthesis of Combretastatin A-4 and 3′-Aminocombretastatin A-4 derivatives with Aminoacid Containing Pendants and Study of their Interaction with Tubulin and as Downregulators of the VEGF, hTERT and c-Myc Gene Expression” (Molecules, 2020) can be followed below.

SMILES strings stand for the structures.

Data set [1] concerns A-549 (human pulmonary adenocarcinoma). Put plainly: Inhibition of cell proliferation (MTT), A-549. As to conditions: IC50 (HEK-293)/IC50 (A-549). In kind it is cell-based. An excerpt:
(§1) The ability of the synthetic compounds to inhibit cell proliferation was established by means of their IC50 values towards the tumor cell lines HT-29 (human colon adenocarcinoma), MCF-7 (breast adenocarcinoma) and A-549 (human pulmonary adenocarcinoma), as well as towards the nontumor cell line HEK-293 (human embryonic kidney cells). Results for compounds derived from CA-4 are presented in Table 1, along with the calculated selectivity indexes SIA (for HT-29 cell line), SIB (for MCF-7 cell line) and SIc (for A-549 cell line), obtained by dividing the IC50 values of the nontumor cell line (HEK-293) by those of the corresponding tumor cell line. The higher the SI index, the higher the therapeutic safety margin.
Cell culture media were purchased from Gibco (Grand Island, NY, USA). Fetal bovine serum (FBS) was a product of Harlan-Seralab (Belton, U.K.). Supplements and other chemicals not listed in this section were obtained from Sigma Chemical Co. (St. Louis, MO, USA). Plastics for cell culture were supplied by Thermo Fischer Scientific Inc., Madrid, Spain. All tested compounds were dissolved in DMSO at a concentration of 10 μg/mL and stored at −20 °C until use. HT-29, MCF-7, A-549 and HEK-293 cell lines were maintained in a Dulbecco’s modified Eagle’s medium (DMEM) containing glucose (1 g/L), glutamine (2 mM), penicillin (50 IU/mL), streptomycin (50 μg/mL) and amphotericin B (1.25 μg/mL), supplemented with 10% FBS. Cells from human non-small lung carcinoma (clone A549; ATCC n°: CCL2, MD, USA) were routinely grown at 37 °C in a humidified atmosphere of 5% CO2. Cells were maintained in a standard medium composed of RPMI 1640 (Lonza, Group Ltd., Basel, Switzerland), supplemented with 10% fetal bovine serum (FBS), 2 mM L-glutamine and 1% penicillin and streptomycin (Invitrogen). Cells were free from mycoplasma as determined by MycoAlert tests (Lonza, Group Ltd., Basel, Switzerland). […]

In data set [2] the test system is HT-29 (human colon adenocarcinoma). Put plainly: Inhibition of cell proliferation (MTT), HT-29. In kind it is cell-based. The following applies: IC50 (HEK-293)/IC50 (HT-29).
Text: as §1
(§2) Cell culture media were purchased from Gibco (Grand Island, NY, USA). Fetal bovine serum (FBS) was a product of Harlan-Seralab (Belton, U.K.). Supplements and other chemicals not listed in this section were obtained from Sigma Chemical Co. (St. Louis, MO, USA). Plastics for cell culture were supplied by Thermo Fischer Scientific Inc., Madrid, Spain. All tested compounds were dissolved in DMSO at a concentration of 10 μg/mL and stored at −20 °C until use. HT-29, MCF-7, A-549 and HEK-293 cell lines were maintained in a Dulbecco’s modified Eagle’s medium (DMEM) containing glucose (1 g/L), glutamine (2 mM), penicillin (50 IU/mL), streptomycin (50 μg/mL) and amphotericin B (1.25 μg/mL), supplemented with 10% FBS. Cells from human non-small lung carcinoma (clone A549; ATCC n°: CCL2, MD, USA) were routinely grown at 37 °C in a humidified atmosphere of 5% CO2. Cells were maintained in a standard medium composed of RPMI 1640 (Lonza, Group Ltd., Basel, Switzerland), supplemented with 10% fetal bovine serum (FBS), 2 mM L-glutamine and 1% penicillin and streptomycin (Invitrogen). Cells were free from mycoplasma as determined by MycoAlert tests (Lonza, Group Ltd., Basel, Switzerland).
(§3) A total of 5 × 10^3 HT-29, MCF-7 or HEK-293 cells in a total volume of 100 μL of their respective growth media were incubated with serial dilutions of the tested compounds. The 3-(4,5-dimethylthiazol-2-yl)-2,5-diphenyltetrazolium bromide (MTT; Sigma Chemical Co.) dye reduction assay in a 96-well microplate was used, as previously described. […] The resulting formazan was dissolved in 150 μL of 0.04 N HCl/2-propanol and read at 550 nm. All determinations were carried out in triplicate.

The test system of data set [3] is MCF-7 (breast adenocarcinoma). Description: Inhibition of cell proliferation (MTT), MCF-7. It counts as cell-based, human. The following applies: IC50 (HEK-293)/IC50 (MCF-7).
Text: as §1, §2, §3

In turn, `COC(=O)[C@@H]1CCCN1C(=O)COc1cc(/C=C\c2cc(OC)c(OC)c(OC)c2)ccc1OC` [Compound 3.5] came in with an SIc in data set [1] (Table 1) of 0.4. This compound displayed an SIA in data set [2] (Table 1) of 0.4. This compound also came in with an SIB in data set [3] (Table 1) of 0.8.

As for `COc1ccc(/C=C\c2cc(OC)c(OC)c(OC)c2)cc1OCC(=O)N[C@H](C(=O)O)C(C)C` [Compound 4.2], the SIc in data set [1] (Table 1) is given as 0.3. In data set [2] (Table 1), the SIA was 0.4. This compound also gave an SIB in data set [3] (Table 1) of 0.6.

In data set [1] (Table 2), `COc1ccc(/C=C\c2cc(OC)c(OC)c(OC)c2)cc1NC(=O)[C@H]1CCCN1C(=O)OCC1c2ccccc2-c2ccccc21` [Compound 9.4] gave an SIc of 0.2. This compound also came in with an SIA in data set [2] (Table 2) of 0.6. Also, the SIB in data set [3] (Table 2) stood at 0.6.

In turn, `COC(=O)[C@@H](NC(=O)COc1cc(/C=C\c2cc(OC)c(OC)c(OC)c2)ccc1OC)C(C)O` (stereo partly shown) [Compound 3.7] showed an SIc in data set [1] (Table 1) of 0.7. In data set [2] (Table 1), this compound gave an SIA of 0.8. Besides, in data set [3] (Table 1), the SIB is on record as 1.2.

`COC(=O)[C@@H](NC(=O)COc1cc(/C=C\c2cc(OC)c(OC)c(OC)c2)ccc1OC)C(C)C` [Compound 3.2] showed an SIc in data set [1] (Table 1) of 0.2. The compound also displayed an SIA in data set [2] (Table 1) of 0.2. Also, in data set [3] (Table 1), the SIB is 0.4.

In data set [1] (Table 2), `COc1ccc(/C=C\c2cc(OC)c(OC)c(OC)c2)cc1NC(=O)CN` [Compound 8.1] displayed an SIc of 0.02. The same compound had an SIA in data set [2] (Table 2) of 1.0. Further, the SIB in data set [3] (Table 2) came out at 1.1.

Turning to `COc1ccc(/C=C\c2cc(OC)c(OC)c(OC)c2)cc1NC(=O)[C@H](N)CC(C)C` [Compound 10.2], in data set [1] (Table 2), the SIc is 2.7. This compound also yielded an SIA in data set [2] (Table 2) of 0.4. The SIB in data set [3] (Table 2) came out at 0.2.

For the compound `COc1ccc(/C=C\c2cc(OC)c(OC)c(OC)c2)cc1NC(=O)[C@H](N)Cc1ccccc1` [Compound 10.3], in data set [1] (Table 2), the SIc stood at 1.2. For the same compound, the SIA in data set [2] (Table 2) is recorded as 0.9. In addition, the SIB in data set [3] (Table 2) amounted to 1.8.

`COc1ccc(/C=C\c2cc(OC)c(OC)c(OC)c2)cc1OCC(=O)N[C@@H](CO)C(=O)O` [Compound 4.6] had an SIc in data set [1] (Table 1) of 0.5. The compound further showed an SIA in data set [2] (Table 1) of 0.4. Moreover, the SIB in data set [3] (Table 1) worked out at 0.6.

`COc1ccc(/C=C\c2cc(OC)c(OC)c(OC)c2)cc1OCC(=O)N[C@@H](CC(C)C)C(=O)O` [Compound 4.3] yielded an SIc in data set [1] (Table 1) of 0.6. This compound showed an SIA in data set [2] (Table 1) of 0.6. This compound also had an SIB in data set [3] (Table 1) of 0.6.

`COc1ccc(/C=C\c2cc(OC)c(OC)c(OC)c2)cc1NC(=O)[C@@H]1CCCN1C(=O)OCC1c2ccccc2-c2ccccc21` [Compound 7.6] gave an SIc in data set [1] (Table 2) of 0.1. Also, the SIA in data set [2] (Table 2) is listed as 0.4. Further, the SIB in data set [3] (Table 2) turned out to be 2.2.

In data set [1] (Table 2), `COc1ccc(/C=C\c2cc(OC)c(OC)c(OC)c2)cc1NC(=O)[C@@H](N)Cc1ccccc1` [Compound 8.5] had an SIc of 0.02. The same compound came in with an SIA in data set [2] (Table 2) of 0.8. Also, in data set [3] (Table 2), the SIB is listed as 1.5.

Consider `COC(=O)[C@@H](CC(C)C)NC(=O)COc1cc(/C=C\c2cc(OC)c(OC)c(OC)c2)ccc1OC` [Compound 5.2], for which the SIc in data set [1] (Table 1) was 0.6. The SIA in data set [2] (Table 1) was found to be 0.5. Further, the SIB in data set [3] (Table 1) is recorded as 0.8.

Regarding `COc1ccc(/C=C\c2cc(OC)c(OC)c(OC)c2)cc1NC(=O)[C@@H](N)C(C)C` [Compound 8.3], the SIc in data set [1] (Table 2) turned out to be 0.02. Moreover, the SIA in data set [2] (Table 2) is on record as 0.6. The SIB in data set [3] (Table 2) is recorded as 0.6.

For `COC(=O)[C@H](NC(=O)COc1cc(/C=C\c2cc(OC)c(OC)c(OC)c2)ccc1OC)C(C)C` [Compound 5.1], the SIc in data set [1] (Table 1) came to 0.8. In data set [2] (Table 1), this compound had an SIA of 0.1. The same compound gave an SIB in data set [3] (Table 1) of 0.4.

Take `COc1ccc(/C=C\c2cc(OC)c(OC)c(OC)c2)cc1O` [CA-4, combretastatin A-4]: the SIc stood at 58 in data set [1] (Table 1) and 60 in data set [1] (Table 2). For the same compound, in data set [2] (Table 1), the SIA is on record as 5.9. For the same compound, the SIB in data set [3] (Table 1) is reported as 25.

Regarding `COc1ccc(/C=C\c2cc(OC)c(OC)c(OC)c2)cc1NC(=O)[C@H](Cc1ccccc1)NC(=O)OCC1c2ccccc2-c2ccccc21` [Compound 7.5], the SIc in data set [1] (Table 2) is 0.01. This compound registered an SIA in data set [2] (Table 2) of 0.3. The SIB in data set [3] (Table 2) worked out at 0.2.

`COc1ccc(/C=C\c2cc(OC)c(OC)c(OC)c2)cc1N` [AmCA-4, 3′-aminocombretastatin A-4]: in data set [1] (Table 2), the SIc is given as 0.06. Further, in data set [2] (Table 2), the SIA was found to be 0.3. This compound also displayed an SIB in data set [3] (Table 2) of 0.9.

In turn, `COc1ccc(/C=C\c2cc(OC)c(OC)c(OC)c2)cc1NC(=O)[C@H](N)C(C)C` [Compound 10.1] yielded an SIc in data set [1] (Table 2) of 0.2. The SIA in data set [2] (Table 2) amounted to 0.5. Also, in data set [3] (Table 2), the SIB is 0.5.

In turn, `COc1ccc(/C=C\c2cc(OC)c(OC)c(OC)c2)cc1NC(=O)CNC(=O)OCC1c2ccccc2-c2ccccc21` [Compound 7.1] yielded an SIc in data set [1] (Table 2) of 0.02. The compound further displayed an SIA in data set [2] (Table 2) of 0.5. In data set [3] (Table 2), this compound displayed an SIB of 0.7.

`COc1ccc(/C=C\c2cc(OC)c(OC)c(OC)c2)cc1OCC(=O)N[C@@H](Cc1ccccc1)C(=O)O` [Compound 4.4] had an SIc in data set [1] (Table 1) of 0.5. In addition, the SIA in data set [2] (Table 1) is given as 0.9. The same compound yielded an SIB in data set [3] (Table 1) of 1.0.

Take `COC(=O)[C@@H](Cc1ccccc1)NC(=O)COc1cc(/C=C\c2cc(OC)c(OC)c(OC)c2)ccc1OC` [Compound 5.3]: the SIc in data set [1] (Table 1) is on record as 0.4. The same compound gave an SIA in data set [2] (Table 1) of 0.3. In data set [3] (Table 1), the SIB was found to be 0.7.

As for `COc1ccc(/C=C\c2cc(OC)c(OC)c(OC)c2)cc1OCC(=O)N[C@@H](C(=O)O)C(C)C` [Compound 6.1], in data set [1] (Table 1), the SIc was found to be 0.7. For the same compound, the SIA in data set [2] (Table 1) worked out at 0.9. Moreover, the SIB in data set [3] (Table 1) is 0.8.

Take `COc1ccc(/C=C\c2cc(OC)c(OC)c(OC)c2)cc1OCC(=O)N[C@H](C(=O)O)C(C)O` (stereo partly shown) [Compound 4.7]: in data set [1] (Table 1), the SIc came to 0.6. Further, the SIA in data set [2] (Table 1) was 0.7. This compound showed an SIB in data set [3] (Table 1) of 0.6.

In data set [1] (Table 2), `COc1ccc(/C=C\c2cc(OC)c(OC)c(OC)c2)cc1NC(=O)[C@H](NC(=O)OCC1c2ccccc2-c2ccccc21)C(C)C` [Compound 9.1] yielded an SIc of 0.7. Also, in data set [2] (Table 2), the SIA was found to be 0.9. Further, the SIB in data set [3] (Table 2) came out at 1.1.

Compound `COc1ccc(/C=C\c2cc(OC)c(OC)c(OC)c2)cc1NC(=O)[C@H](CC(C)C)NC(=O)OCC1c2ccccc2-c2ccccc21` [Compound 7.4] displayed an SIc in data set [1] (Table 2) of 0.03. This compound also displayed an SIA in data set [2] (Table 2) of 0.6. In data set [3] (Table 2), the SIB was determined as 1.6.

`COC(=O)[C@H]1CCCN1C(=O)COc1cc(/C=C\c2cc(OC)c(OC)c(OC)c2)ccc1OC` [Compound 5.4] registered an SIc in data set [1] (Table 1) of 0.4. This compound registered an SIA in data set [2] (Table 1) of 0.1. This compound also returned an SIB in data set [3] (Table 1) of 0.6.
